Reference: the supplement of paper PMC12823440, “Inhibitors supercharge kinase turnover through native proteolytic circuits” (Nature, 2025)
Counter-ions that a name gives are not always drawn. The list shows a part of the results. The calls rarely recur for the same compound in another form.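 In K562 cells expressing nanoluciferase-fused kinases, luminescence was recorded at 4 h intervals between 2 and 18 h, normalized as percent of control with DMSO at 100% and a positive control at 0%. A significant (2 sigma) signal drop marks a time point as decreased. The authors' rule for a hit is not shown and takes in more than the number of time points.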

Amino acid sequences for entries named in this document (tags omitted). A change or cut given only in a name is not applied to a line headed by its entry.
UniProt P00519, whole entry: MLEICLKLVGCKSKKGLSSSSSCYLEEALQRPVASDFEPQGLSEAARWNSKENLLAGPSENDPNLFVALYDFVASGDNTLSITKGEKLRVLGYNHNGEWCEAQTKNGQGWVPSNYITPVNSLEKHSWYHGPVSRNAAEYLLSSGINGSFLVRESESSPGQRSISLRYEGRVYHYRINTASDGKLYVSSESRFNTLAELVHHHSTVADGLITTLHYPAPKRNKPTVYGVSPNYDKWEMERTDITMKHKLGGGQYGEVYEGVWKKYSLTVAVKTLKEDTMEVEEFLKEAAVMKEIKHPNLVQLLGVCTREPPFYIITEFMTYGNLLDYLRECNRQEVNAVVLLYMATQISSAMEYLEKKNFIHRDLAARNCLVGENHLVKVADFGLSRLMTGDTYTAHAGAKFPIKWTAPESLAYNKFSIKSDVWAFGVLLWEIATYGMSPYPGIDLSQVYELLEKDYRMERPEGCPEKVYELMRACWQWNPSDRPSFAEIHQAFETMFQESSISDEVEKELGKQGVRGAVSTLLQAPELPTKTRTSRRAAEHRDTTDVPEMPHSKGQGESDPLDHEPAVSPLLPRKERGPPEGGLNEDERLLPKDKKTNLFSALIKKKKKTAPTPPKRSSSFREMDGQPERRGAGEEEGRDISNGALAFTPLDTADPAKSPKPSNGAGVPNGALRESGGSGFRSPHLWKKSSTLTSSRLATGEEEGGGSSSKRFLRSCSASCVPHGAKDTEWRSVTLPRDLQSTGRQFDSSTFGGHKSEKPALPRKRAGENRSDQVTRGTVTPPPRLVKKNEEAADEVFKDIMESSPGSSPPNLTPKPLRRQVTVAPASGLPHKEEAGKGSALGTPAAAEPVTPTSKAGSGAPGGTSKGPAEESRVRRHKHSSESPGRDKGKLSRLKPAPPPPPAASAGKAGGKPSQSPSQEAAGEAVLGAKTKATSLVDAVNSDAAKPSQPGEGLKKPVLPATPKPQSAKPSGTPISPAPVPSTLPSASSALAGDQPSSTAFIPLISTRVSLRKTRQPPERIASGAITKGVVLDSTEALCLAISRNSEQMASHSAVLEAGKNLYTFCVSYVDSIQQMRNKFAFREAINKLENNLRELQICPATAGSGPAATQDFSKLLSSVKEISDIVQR
UniProt P31749: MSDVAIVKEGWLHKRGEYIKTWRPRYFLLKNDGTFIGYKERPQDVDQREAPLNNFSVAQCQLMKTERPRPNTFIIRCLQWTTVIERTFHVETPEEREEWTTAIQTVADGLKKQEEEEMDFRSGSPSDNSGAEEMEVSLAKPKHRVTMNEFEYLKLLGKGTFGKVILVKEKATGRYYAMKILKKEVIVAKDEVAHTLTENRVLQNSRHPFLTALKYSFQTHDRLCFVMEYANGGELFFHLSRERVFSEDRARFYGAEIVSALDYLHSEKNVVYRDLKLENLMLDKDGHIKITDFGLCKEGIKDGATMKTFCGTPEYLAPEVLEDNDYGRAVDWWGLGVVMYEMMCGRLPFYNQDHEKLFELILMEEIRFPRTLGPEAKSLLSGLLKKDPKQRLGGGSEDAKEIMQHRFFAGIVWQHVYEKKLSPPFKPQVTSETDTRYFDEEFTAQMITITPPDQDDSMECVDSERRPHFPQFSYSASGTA
UniProt P10398: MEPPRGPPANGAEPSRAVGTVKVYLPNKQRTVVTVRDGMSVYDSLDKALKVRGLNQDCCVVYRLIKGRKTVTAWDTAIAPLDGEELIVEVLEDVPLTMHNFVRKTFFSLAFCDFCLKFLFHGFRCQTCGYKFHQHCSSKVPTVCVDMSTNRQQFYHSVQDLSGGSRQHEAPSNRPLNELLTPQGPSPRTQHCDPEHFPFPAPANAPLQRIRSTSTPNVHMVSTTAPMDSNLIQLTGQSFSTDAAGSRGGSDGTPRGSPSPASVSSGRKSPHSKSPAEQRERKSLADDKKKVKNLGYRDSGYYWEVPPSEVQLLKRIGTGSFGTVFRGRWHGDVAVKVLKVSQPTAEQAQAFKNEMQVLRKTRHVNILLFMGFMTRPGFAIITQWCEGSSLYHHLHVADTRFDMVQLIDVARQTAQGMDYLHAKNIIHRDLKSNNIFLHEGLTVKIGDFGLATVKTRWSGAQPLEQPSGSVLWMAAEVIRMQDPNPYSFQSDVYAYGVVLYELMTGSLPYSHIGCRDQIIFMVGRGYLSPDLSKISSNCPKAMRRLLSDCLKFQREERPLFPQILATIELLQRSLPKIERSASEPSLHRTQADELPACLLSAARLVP
UniProt Q96GD4, whole entry: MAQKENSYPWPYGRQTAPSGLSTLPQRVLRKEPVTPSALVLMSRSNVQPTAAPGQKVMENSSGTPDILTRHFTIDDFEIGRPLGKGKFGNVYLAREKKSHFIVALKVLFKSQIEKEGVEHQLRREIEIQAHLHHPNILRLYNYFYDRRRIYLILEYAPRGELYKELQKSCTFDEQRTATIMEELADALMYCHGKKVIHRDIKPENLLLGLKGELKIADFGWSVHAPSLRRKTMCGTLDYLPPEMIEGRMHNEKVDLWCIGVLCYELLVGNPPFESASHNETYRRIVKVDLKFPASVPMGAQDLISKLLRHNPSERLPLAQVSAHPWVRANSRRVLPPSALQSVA
UniProt Q9UQB9: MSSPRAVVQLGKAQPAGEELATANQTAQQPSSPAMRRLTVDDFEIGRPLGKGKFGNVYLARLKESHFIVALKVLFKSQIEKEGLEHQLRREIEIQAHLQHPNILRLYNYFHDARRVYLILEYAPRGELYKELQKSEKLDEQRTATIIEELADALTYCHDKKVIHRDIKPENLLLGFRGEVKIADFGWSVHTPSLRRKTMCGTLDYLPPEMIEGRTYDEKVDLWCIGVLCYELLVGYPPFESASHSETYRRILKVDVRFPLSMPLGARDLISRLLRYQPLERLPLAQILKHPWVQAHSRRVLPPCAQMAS
UniProt P51813: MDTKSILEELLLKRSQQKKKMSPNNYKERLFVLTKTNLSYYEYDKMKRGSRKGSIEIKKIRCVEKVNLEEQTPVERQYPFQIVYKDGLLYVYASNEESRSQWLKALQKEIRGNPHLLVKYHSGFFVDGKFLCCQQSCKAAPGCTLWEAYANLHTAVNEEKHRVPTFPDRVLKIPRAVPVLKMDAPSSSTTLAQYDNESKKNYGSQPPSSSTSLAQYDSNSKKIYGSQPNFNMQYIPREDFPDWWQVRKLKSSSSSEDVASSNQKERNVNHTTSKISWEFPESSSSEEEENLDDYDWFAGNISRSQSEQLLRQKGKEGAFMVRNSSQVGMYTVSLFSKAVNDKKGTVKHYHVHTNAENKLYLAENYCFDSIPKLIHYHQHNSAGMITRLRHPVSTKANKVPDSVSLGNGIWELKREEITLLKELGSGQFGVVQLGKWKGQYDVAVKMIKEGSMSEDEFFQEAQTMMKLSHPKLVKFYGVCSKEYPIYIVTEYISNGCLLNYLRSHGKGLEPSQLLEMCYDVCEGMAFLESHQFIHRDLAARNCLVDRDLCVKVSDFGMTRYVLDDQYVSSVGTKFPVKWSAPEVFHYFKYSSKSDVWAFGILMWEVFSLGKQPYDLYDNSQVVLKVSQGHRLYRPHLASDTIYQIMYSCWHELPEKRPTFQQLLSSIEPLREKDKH
UniProt P15056, whole entry, looked up: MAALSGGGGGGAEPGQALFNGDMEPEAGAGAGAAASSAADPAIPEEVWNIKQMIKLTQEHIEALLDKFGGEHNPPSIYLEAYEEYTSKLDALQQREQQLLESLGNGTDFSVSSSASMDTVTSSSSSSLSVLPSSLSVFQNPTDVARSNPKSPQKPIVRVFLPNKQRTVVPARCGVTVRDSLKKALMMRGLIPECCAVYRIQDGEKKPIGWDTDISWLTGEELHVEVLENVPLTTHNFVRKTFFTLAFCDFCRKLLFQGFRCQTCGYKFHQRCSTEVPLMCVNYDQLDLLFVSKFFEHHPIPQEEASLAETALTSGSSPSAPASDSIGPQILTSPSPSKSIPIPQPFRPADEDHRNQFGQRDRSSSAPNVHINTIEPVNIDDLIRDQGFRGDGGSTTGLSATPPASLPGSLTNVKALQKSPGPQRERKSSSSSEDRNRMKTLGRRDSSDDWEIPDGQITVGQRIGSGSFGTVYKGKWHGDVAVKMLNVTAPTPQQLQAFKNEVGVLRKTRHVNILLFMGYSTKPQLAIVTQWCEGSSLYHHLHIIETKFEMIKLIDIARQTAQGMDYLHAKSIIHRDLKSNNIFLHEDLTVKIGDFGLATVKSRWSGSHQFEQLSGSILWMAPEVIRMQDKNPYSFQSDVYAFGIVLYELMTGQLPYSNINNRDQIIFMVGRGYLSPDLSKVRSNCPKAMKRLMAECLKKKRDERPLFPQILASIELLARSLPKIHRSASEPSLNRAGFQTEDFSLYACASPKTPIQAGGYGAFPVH
UniProt Q06187: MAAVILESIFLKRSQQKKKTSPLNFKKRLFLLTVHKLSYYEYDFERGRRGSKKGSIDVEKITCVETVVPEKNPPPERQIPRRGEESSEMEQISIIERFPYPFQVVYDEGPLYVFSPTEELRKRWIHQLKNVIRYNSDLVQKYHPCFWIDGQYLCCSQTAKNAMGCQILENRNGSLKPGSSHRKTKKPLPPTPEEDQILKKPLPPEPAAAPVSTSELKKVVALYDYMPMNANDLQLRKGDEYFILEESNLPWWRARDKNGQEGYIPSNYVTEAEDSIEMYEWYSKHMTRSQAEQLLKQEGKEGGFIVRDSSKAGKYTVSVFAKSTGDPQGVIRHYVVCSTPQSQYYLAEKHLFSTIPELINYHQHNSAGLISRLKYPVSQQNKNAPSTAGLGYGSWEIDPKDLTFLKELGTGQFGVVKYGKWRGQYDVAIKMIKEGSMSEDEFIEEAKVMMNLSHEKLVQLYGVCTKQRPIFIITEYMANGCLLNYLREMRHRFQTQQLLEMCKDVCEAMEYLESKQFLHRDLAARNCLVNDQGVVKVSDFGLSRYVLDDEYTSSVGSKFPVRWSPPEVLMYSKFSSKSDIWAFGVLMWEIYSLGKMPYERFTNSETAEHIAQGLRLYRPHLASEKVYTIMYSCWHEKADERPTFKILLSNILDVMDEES
UniProt Q13555: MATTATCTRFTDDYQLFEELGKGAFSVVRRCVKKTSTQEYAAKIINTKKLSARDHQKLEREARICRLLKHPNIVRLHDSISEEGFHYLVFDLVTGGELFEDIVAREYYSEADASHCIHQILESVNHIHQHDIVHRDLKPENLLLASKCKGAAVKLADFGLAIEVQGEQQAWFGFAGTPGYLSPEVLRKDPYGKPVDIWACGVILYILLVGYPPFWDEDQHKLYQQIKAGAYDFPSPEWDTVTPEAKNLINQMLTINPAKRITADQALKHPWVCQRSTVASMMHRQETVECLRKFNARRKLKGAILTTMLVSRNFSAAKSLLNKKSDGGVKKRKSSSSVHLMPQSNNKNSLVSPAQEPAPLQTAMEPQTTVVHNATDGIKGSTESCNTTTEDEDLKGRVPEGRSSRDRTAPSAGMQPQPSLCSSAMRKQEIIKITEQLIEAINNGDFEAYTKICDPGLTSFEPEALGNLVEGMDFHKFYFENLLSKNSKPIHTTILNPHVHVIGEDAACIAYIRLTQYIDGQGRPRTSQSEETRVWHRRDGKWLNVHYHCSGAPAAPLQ
UniProt Q15131: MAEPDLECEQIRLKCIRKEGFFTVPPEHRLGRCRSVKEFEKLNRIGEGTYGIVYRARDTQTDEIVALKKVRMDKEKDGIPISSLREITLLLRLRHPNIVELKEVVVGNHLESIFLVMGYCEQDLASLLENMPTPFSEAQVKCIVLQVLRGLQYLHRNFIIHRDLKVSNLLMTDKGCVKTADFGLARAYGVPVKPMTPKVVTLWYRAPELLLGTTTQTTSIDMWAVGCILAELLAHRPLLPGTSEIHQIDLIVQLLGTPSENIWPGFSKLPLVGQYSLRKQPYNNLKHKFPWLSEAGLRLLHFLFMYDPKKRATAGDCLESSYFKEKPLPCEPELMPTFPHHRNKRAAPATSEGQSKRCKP
UniProt Q00526: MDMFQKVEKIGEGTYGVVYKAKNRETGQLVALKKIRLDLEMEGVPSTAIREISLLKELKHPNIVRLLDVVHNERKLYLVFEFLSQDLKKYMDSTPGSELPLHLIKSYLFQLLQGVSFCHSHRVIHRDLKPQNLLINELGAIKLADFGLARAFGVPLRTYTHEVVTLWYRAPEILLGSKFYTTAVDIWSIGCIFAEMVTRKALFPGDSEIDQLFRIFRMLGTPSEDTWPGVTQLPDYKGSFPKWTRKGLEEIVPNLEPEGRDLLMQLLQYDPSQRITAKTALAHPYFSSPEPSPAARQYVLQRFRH
UniProt Q00535, whole entry, looked up: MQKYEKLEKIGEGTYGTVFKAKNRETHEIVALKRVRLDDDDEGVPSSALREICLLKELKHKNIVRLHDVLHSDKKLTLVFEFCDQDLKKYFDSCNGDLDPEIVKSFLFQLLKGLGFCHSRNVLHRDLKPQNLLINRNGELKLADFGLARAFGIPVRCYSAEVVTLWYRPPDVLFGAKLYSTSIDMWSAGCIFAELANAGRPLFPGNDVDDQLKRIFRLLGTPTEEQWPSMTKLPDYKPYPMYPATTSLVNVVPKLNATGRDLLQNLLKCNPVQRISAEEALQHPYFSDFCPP

What was measured:
Assay in all cases: kinase-Nluc reporter destabilization hit call (1 = scored as downregulated) (binary); higher = compound decreases kinase abundance
Settings in all cases: K562; 2-18 h
ABL1 = ABL1 (UniProt P00519)
AKT1 = AKT1 (UniProt P31749)
ALK = ALK (UniProt Q9UM73)
ARAF = ARAF (UniProt P10398)
AURKA = AURKA (UniProt O14965)
AURKB = AURKB (UniProt Q96GD4)
AURKC = AURKC (UniProt Q9UQB9)
BLK = BLK (UniProt P51451)
BMX = BMX (UniProt P51813)
BRAF = BRAF (UniProt P15056)
BRAF_V600E = test system: BRAF_V600E
BTK = BTK (UniProt Q06187)
CAMK2A = CAMK2A (UniProt Q9UQM7)
CAMK2G = CAMK2G (UniProt Q13555)
CDK10 = CDK10 (UniProt Q15131)
CDK2 = CDK2 (UniProt P24941)
CDK3 = CDK3 (UniProt Q00526)
CDK4 = CDK4 (UniProt P11802)
CDK5 = CDK5 (UniProt Q00535)
CDK6 = CDK6 (UniProt Q00534)

Row | SMILES | kinase-Nluc reporter destabilization hit call (ABL1) | kinase-Nluc reporter destabilization hit call (AKT1) | kinase-Nluc reporter destabilization hit call (ALK) | kinase-Nluc reporter destabilization hit call (ARAF) | kinase-Nluc reporter destabilization hit call (AURKA) | kinase-Nluc reporter destabilization hit call (AURKB) | kinase-Nluc reporter destabilization hit call (AURKC) | kinase-Nluc reporter destabilization hit call (BLK) | kinase-Nluc reporter destabilization hit call (BMX) | kinase-Nluc reporter destabilization hit call (BRAF) | kinase-Nluc reporter destabilization hit call (BRAF_V600E) | kinase-Nluc reporter destabilization hit call (BTK) | kinase-Nluc reporter destabilization hit call (CAMK2A) | kinase-Nluc reporter destabilization hit call (CAMK2G) | kinase-Nluc reporter destabilization hit call (CDK10) | kinase-Nluc reporter destabilization hit call (CDK2) | kinase-Nluc reporter destabilization hit call (CDK3) | kinase-Nluc reporter destabilization hit call (CDK4) | kinase-Nluc reporter destabilization hit call (CDK5) | kinase-Nluc reporter destabilization hit call (CDK6)
1 | CC(=O)O/N=C1/C(c2c(O)[nH]c3cc(Br)ccc23)=Nc2ccccc21 [BIO-acetoxime] (10 µM) | inactive: 0 | inactive: 0 | inactive: 0 | inactive: 0 | inactive: 0 | inactive: 0 | inactive: 0 | inactive: 0 | inactive: 0 | inactive: 0 | inactive: 0 | inactive: 0 | inactive: 0 | inactive: 0 | inactive: 0 | inactive: 0 | inactive: 0 | inactive: 0 | inactive: 0 | inactive: 0
2 | CS[C@@]1(C(=O)Nc2ccc3[nH]nc(-c4ccc(OC(C)C)nc4)c3c2)CCN(CC(=O)N2CC=C(c3ccc(-c4ncn(C)n4)cc3)CC2)C1 (2.5 µM) | inactive: 0 | inactive: 0 | inactive: 0 | inactive: 0 | inactive: 0 | inactive: 0 | inactive: 0 | inactive: 0 | inactive: 0 | inactive: 0 | inactive: 0 | inactive: 0 | inactive: 0 | inactive: 0 | inactive: 0 | inactive: 0 | inactive: 0 | inactive: 0 | inactive: 0 | inactive: 0
3 | Cc1cccc(CC(=O)N2CCc3c2ccc(-c2cn(C)c4ncnc(N)c24)c3F)n1 (10 µM) | inactive: 0 | inactive: 0 | inactive: 0 | inactive: 0 | inactive: 0 | inactive: 0 | inactive: 0 | inactive: 0 | inactive: 0 | inactive: 0 | inactive: 0 | inactive: 0 | inactive: 0 | inactive: 0 | inactive: 0 | inactive: 0 | inactive: 0 | inactive: 0 | inactive: 0 | inactive: 0
4 | CN1C(=O)[C@@H](NC(=O)c2cc(Cc3ccccc3)on2)COc2ccccc21 (10 µM) | inactive: 0 | inactive: 0 | inactive: 0 | inactive: 0 | inactive: 0 | inactive: 0 | inactive: 0 | inactive: 0 | inactive: 0 | inactive: 0 | inactive: 0 | inactive: 0 | inactive: 0 | inactive: 0 | inactive: 0 | inactive: 0 | inactive: 0 | inactive: 0 | inactive: 0 | inactive: 0
5 | CC(C)c1cc2c(c(O)c1O)[C@@]13CCCC(C)(C)[C@@H]1C[C@@H]2OC3=O [Carnosol] (2.5 µM) | inactive: 0 | inactive: 0 | inactive: 0 | inactive: 0 | inactive: 0 | inactive: 0 | inactive: 0 | inactive: 0 | inactive: 0 | inactive: 0 | inactive: 0 | inactive: 0 | inactive: 0 | inactive: 0 | inactive: 0 | inactive: 0 | inactive: 0 | inactive: 0 | inactive: 0 | inactive: 0
6 | Cn1cnc2c(F)c(Nc3ccc(Br)cc3F)c(C(=O)NOCCO)cc21 [Binimetinib] (10 µM) | inactive: 0 | inactive: 0 | inactive: 0 | inactive: 0 | inactive: 0 | inactive: 0 | inactive: 0 | inactive: 0 | inactive: 0 | inactive: 0 | inactive: 0 | inactive: 0 | inactive: 0 | inactive: 0 | inactive: 0 | inactive: 0 | inactive: 0 | inactive: 0 | inactive: 0 | inactive: 0
7 | COc1cc2ncnc(Nc3cc(Br)c(O)c(Br)c3)c2cc1OC (2.5 µM) | inactive: 0 | inactive: 0 | inactive: 0 | inactive: 0 | inactive: 0 | inactive: 0 | inactive: 0 | inactive: 0 | inactive: 0 | inactive: 0 | inactive: 0 | inactive: 0 | inactive: 0 | inactive: 0 | inactive: 0 | inactive: 0 | inactive: 0 | inactive: 0 | inactive: 0 | inactive: 0
8 | NCCNS(=O)(=O)c1ccc(Cl)c2ccncc12 [CKI-7 (free base)] (10 µM) | inactive: 0 | inactive: 0 | inactive: 0 | inactive: 0 | inactive: 0 | inactive: 0 | inactive: 0 | inactive: 0 | inactive: 0 | inactive: 0 | inactive: 0 | inactive: 0 | inactive: 0 | inactive: 0 | inactive: 0 | inactive: 0 | inactive: 0 | inactive: 0 | inactive: 0 | inactive: 0
9 | CC1(C)C=Cc2c(ccc(C(=O)/C=C/c3ccc(O)cc3)c2O)O1 [4-Hydroxylonchocarpin] (10 µM) | inactive: 0 | inactive: 0 | inactive: 0 | inactive: 0 | inactive: 0 | inactive: 0 | inactive: 0 | active: 1 | inactive: 0 | inactive: 0 | inactive: 0 | inactive: 0 | inactive: 0 | inactive: 0 | inactive: 0 | inactive: 0 | inactive: 0 | inactive: 0 | inactive: 0 | inactive: 0
10 | COCCOc1cnc2ccn([C@H](C)c3nnc4c(F)cc(-c5cnn(C)c5)cn34)c(=O)c2c1 (10 µM) | inactive: 0 | inactive: 0 | inactive: 0 | inactive: 0 | inactive: 0 | inactive: 0 | inactive: 0 | inactive: 0 | inactive: 0 | inactive: 0 | inactive: 0 | inactive: 0 | inactive: 0 | inactive: 0 | inactive: 0 | inactive: 0 | inactive: 0 | inactive: 0 | inactive: 0 | inactive: 0
11 | O=c1cc(-c2ccc(O[C@@H]3O[C@H](CO)[C@@H](O)[C@H](O)[C@H]3O)cc2)oc2cc(O)c([C@@H]3O[C@H](CO)[C@@H](O)[C@H](O)[C@H]3O[C@@H]3OC[C@H](O)[C@H](O)[C@H]3O)c(O)c12 [Vaccarin] (10 µM) | inactive: 0 | inactive: 0 | inactive: 0 | inactive: 0 | inactive: 0 | inactive: 0 | inactive: 0 | inactive: 0 | inactive: 0 | inactive: 0 | inactive: 0 | inactive: 0 | inactive: 0 | inactive: 0 | inactive: 0 | inactive: 0 | inactive: 0 | inactive: 0 | inactive: 0 | inactive: 0
12 | O=C(COc1ccc(Cl)cc1)NC1CCC(NC(=O)COc2ccc(Cl)cc2)CC1 (stereo not drawn) [ISRIB (trans-isomer)] (10 µM) | inactive: 0 | inactive: 0 | inactive: 0 | inactive: 0 | inactive: 0 | inactive: 0 | inactive: 0 | inactive: 0 | inactive: 0 | inactive: 0 | inactive: 0 | inactive: 0 | inactive: 0 | inactive: 0 | inactive: 0 | inactive: 0 | inactive: 0 | inactive: 0 | inactive: 0 | inactive: 0
13 | Cc1ccc(C2CC(=O)NC(SCC(=O)Nc3nccs3)=C2C#N)cc1 (stereo not given) [Necrostatin-34] (10 µM) | inactive: 0 | inactive: 0 | inactive: 0 | inactive: 0 | inactive: 0 | inactive: 0 | inactive: 0 | inactive: 0 | inactive: 0 | inactive: 0 | inactive: 0 | inactive: 0 | inactive: 0 | inactive: 0 | inactive: 0 | inactive: 0 | inactive: 0 | inactive: 0 | inactive: 0 | inactive: 0
14 | C[C@@H]1CN(Cc2ccc(F)cc2)[C@@H](C)CN1C(=O)c1cc2c(C(=O)C(=O)N(C)C)cn(C)c2cc1Cl [Talmapimod] (10 µM) | inactive: 0 | inactive: 0 | inactive: 0 | inactive: 0 | inactive: 0 | inactive: 0 | inactive: 0 | inactive: 0 | inactive: 0 | inactive: 0 | inactive: 0 | inactive: 0 | inactive: 0 | inactive: 0 | inactive: 0 | inactive: 0 | inactive: 0 | inactive: 0 | inactive: 0 | inactive: 0
15 | CCc1cc(Nc2nccc(-c3c(-c4ccc(OC)c(C(=O)Nc5c(F)cccc5F)c4)nc4ccccn34)n2)c(OC)cc1N1CCC(N2CCN(S(C)(=O)=O)CC2)CC1 (2.5 µM) | inactive: 0 | inactive: 0 | inactive: 0 | inactive: 0 | inactive: 0 | inactive: 0 | inactive: 0 | inactive: 0 | inactive: 0 | inactive: 0 | inactive: 0 | inactive: 0 | inactive: 0 | inactive: 0 | inactive: 0 | inactive: 0 | inactive: 0 | inactive: 0 | inactive: 0 | inactive: 0
16 | CN1CCN(c2ccc(-n3cc(-c4ccncc4OCC4CCNCC4)cn3)cc2)CC1 [MELK-8a (hydrochloride)] (10 µM) | inactive: 0 | inactive: 0 | inactive: 0 | inactive: 0 | inactive: 0 | inactive: 0 | inactive: 0 | inactive: 0 | inactive: 0 | inactive: 0 | inactive: 0 | inactive: 0 | inactive: 0 | inactive: 0 | inactive: 0 | inactive: 0 | inactive: 0 | inactive: 0 | inactive: 0 | inactive: 0
17 | CN1CCN(c2ccc(-c3ccncc3-c3cc(F)c(O)c(F)c3)cc2)CC1 (10 µM) | inactive: 0 | inactive: 0 | inactive: 0 | inactive: 0 | inactive: 0 | inactive: 0 | inactive: 0 | inactive: 0 | inactive: 0 | inactive: 0 | inactive: 0 | inactive: 0 | inactive: 0 | inactive: 0 | inactive: 0 | inactive: 0 | inactive: 0 | inactive: 0 | inactive: 0 | inactive: 0

Part of the list above, with tabs.
Row	SMILES	kinase-Nluc reporter destabilization hit call (ABL1)	kinase-Nluc reporter destabilization hit call (AKT1)	kinase-Nluc reporter destabilization hit call (ALK)	kinase-Nluc reporter destabilization hit call (ARAF)	kinase-Nluc reporter destabilization hit call (AURKA)	kinase-Nluc reporter destabilization hit call (AURKB)	kinase-Nluc reporter destabilization hit call (AURKC)	kinase-Nluc reporter destabilization hit call (BLK)	kinase-Nluc reporter destabilization hit call (BMX)	kinase-Nluc reporter destabilization hit call (BRAF)	kinase-Nluc reporter destabilization hit call (BRAF_V600E)	kinase-Nluc reporter destabilization hit call (BTK)	kinase-Nluc reporter destabilization hit call (CAMK2A)	kinase-Nluc reporter destabilization hit call (CAMK2G)	kinase-Nluc reporter destabilization hit call (CDK10)	kinase-Nluc reporter destabilization hit call (CDK2)	kinase-Nluc reporter destabilization hit call (CDK3)	kinase-Nluc reporter destabilization hit call (CDK4)	kinase-Nluc reporter destabilization hit call (CDK5)	kinase-Nluc reporter destabilization hit call (CDK6)
8	NCCNS(=O)(=O)c1ccc(Cl)c2ccncc12 [CKI-7 (free base)] (10 µM)	inactive: 0	inactive: 0	inactive: 0	inactive: 0	inactive: 0	inactive: 0	inactive: 0	inactive: 0	inactive: 0	inactive: 0	inactive: 0	inactive: 0	inactive: 0	inactive: 0	inactive: 0	inactive: 0	inactive: 0	inactive: 0	inactive: 0	inactive: 0
9	CC1(C)C=Cc2c(ccc(C(=O)/C=C/c3ccc(O)cc3)c2O)O1 [4-Hydroxylonchocarpin] (10 µM)	inactive: 0	inactive: 0	inactive: 0	inactive: 0	inactive: 0	inactive: 0	inactive: 0	active: 1	inactive: 0	inactive: 0	inactive: 0	inactive: 0	inactive: 0	inactive: 0	inactive: 0	inactive: 0	inactive: 0	inactive: 0	inactive: 0	inactive: 0
